Assay results from patent publication US20110030099A1, “PLANTS AND MODULATORS FOR IMPROVED DROUGHT TOLERANCE” (priority 2009, published 2011).
Entries after “also recorded” stand apart in the source; their conditions may differ.

Key:
[1] = system: maize leaf tissues; test: Metabolite profiling of leaves of six maize varieties, drought stress vs well-watered; settings: for change of level in drought stressed plants compared to well watered plants (in words): six maize varieties, leaf tissue; for Fold Change (FS/FI): metabolite level in leaf, drought stress vs well-watered
[2] = system: corn hybrids (R and S) leaf samples; test: Metabolite profiling of corn hybrids R and S, drought vs fully irrigated, pre-flowering time course; parameters: species or system maize; settings: eight pre-flowering time points, FIGS. 1A-1D

SMILES | change of level in drought stressed plants compared to well watered plants (in words) [1] | Fold Change (FS/FI) ([1]; maize Entry 1) | Fold Change (FS/FI) ([1]; maize Entry 2) | Fold Change (FS/FI) ([1]; maize Entry 3) | Fold Change (FS/FI) ([1]; maize Entry 4) | Fold Change (FS/FI) ([1]; maize Entry 5) | Fold Change (FS/FI) ([1]; maize Entry 6) | level under drought conditions (in words) [2] | most dramatic increase amongst the metabolites in drought conditions ([1]; drought vs well-watered, summary of Table 1)
C[C@H](N)C(=O)O [alanine] | showed decreases; also recorded: decrease | – | – | – | – | – | – | – | –
NC(=O)NC1NC(=O)NC1=O (stereo not shown) [allantoin] | significant increase | 1.69 | 36.69 | 5.92 | 7.28 | 9.85 | 2.06 | increased | –
NC(=O)C[C@H](N)C(=O)O [asparagine] | significant increase | 4.11 | 53.87 | 1.62 | 20.59 | 3.66 | 0.99 | increased | approximately 50 fold
N[C@@H](CCC(=O)O)C(=O)O [glutamate] | showed decreases | 0.8 | 0.47 | 0.57 | 0.77 | 0.95 | 0.45 | – | –
NC(=O)CC[C@H](N)C(=O)O [glutamine] | significant increase | 1.3 | 4.76 | 0.78 | 3.79 | 2.59 | 0.77 | increased | –
NCC(=O)O [glycine] | increase | – | – | – | – | – | – | – | –
O=C(O)[C@@H]1CCCN1 [proline] | only increased in entry 5 (p<0.05), entry 3 (p>0.05), and entry 6 (p>0.05) | – | – | – | – | – | – | increased | –
N[C@@H](CO)C(=O)O [serine] | increase | – | – | – | – | – | – | – | –
